The text below walks through data of the supplement of paper PMC12595434, “Development of retinoid nuclear receptor pathway antagonists through targeting aldehyde dehydrogenase 1A3” (iScience, 2025).

Chains of the proteins cited; added tags and fusions are not shown. Lines headed by an entry give the natural chain unless they say otherwise; changes in a name come on top.
UniProt P07686: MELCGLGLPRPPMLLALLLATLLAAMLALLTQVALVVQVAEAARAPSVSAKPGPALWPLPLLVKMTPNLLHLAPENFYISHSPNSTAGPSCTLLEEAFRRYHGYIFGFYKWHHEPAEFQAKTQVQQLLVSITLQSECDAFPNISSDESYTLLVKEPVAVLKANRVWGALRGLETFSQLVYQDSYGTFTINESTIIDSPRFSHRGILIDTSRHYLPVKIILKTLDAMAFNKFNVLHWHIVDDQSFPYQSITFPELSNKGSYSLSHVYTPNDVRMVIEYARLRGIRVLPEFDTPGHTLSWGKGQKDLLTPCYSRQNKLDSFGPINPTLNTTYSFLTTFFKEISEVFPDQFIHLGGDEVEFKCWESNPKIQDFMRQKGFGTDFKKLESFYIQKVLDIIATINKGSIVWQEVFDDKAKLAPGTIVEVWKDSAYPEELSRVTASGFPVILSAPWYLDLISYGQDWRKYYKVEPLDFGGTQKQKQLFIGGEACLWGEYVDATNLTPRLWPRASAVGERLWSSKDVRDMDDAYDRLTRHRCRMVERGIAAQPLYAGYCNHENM
UniProt P09110: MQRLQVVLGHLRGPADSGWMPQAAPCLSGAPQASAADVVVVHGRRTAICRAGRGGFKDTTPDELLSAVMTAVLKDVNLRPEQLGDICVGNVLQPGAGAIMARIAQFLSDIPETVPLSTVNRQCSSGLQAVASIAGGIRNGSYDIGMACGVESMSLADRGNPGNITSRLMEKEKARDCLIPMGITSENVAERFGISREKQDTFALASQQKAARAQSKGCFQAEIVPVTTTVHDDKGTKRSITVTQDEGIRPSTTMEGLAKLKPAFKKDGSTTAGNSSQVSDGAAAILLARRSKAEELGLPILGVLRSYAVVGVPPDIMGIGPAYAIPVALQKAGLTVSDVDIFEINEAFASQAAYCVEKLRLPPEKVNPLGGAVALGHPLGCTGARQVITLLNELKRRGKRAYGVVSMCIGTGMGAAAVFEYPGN
UniProt P08579, whole entry: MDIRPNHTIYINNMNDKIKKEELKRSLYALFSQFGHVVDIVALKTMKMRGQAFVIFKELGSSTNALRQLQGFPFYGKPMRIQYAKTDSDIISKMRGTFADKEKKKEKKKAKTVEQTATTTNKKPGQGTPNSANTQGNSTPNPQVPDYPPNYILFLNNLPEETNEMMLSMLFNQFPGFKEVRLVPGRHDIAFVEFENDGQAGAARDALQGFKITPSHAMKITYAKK
UniProt P19838: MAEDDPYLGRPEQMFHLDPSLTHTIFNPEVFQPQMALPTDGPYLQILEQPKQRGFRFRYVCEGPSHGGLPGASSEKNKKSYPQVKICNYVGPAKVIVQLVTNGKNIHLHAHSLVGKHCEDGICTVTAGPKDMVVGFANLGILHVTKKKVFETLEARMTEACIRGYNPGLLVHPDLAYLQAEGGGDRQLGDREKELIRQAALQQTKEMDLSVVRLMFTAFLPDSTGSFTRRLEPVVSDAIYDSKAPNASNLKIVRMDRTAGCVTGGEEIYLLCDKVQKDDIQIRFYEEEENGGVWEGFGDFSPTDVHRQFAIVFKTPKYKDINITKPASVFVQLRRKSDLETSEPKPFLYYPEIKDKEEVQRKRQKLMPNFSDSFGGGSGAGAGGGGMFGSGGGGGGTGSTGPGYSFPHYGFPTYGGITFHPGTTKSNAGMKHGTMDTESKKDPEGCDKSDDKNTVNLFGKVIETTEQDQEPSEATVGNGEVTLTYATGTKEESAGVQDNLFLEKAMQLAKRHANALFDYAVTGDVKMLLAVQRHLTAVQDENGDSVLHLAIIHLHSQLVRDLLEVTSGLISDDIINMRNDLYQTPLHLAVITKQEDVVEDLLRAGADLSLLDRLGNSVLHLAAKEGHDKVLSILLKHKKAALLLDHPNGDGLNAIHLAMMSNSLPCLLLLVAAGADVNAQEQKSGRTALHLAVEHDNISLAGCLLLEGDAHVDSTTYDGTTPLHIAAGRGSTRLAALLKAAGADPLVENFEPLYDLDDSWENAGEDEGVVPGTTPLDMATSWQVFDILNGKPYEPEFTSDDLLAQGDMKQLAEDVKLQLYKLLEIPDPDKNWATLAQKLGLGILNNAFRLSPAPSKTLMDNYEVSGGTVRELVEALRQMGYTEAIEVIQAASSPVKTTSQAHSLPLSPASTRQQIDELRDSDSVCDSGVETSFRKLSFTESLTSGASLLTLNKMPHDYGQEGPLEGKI
UniProt P10301: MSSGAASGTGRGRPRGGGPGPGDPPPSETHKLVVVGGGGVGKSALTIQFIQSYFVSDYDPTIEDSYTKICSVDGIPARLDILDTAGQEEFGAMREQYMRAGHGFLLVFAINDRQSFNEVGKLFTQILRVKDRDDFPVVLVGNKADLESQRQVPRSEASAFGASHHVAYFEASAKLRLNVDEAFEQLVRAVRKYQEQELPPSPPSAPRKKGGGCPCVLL
UniProt P14866: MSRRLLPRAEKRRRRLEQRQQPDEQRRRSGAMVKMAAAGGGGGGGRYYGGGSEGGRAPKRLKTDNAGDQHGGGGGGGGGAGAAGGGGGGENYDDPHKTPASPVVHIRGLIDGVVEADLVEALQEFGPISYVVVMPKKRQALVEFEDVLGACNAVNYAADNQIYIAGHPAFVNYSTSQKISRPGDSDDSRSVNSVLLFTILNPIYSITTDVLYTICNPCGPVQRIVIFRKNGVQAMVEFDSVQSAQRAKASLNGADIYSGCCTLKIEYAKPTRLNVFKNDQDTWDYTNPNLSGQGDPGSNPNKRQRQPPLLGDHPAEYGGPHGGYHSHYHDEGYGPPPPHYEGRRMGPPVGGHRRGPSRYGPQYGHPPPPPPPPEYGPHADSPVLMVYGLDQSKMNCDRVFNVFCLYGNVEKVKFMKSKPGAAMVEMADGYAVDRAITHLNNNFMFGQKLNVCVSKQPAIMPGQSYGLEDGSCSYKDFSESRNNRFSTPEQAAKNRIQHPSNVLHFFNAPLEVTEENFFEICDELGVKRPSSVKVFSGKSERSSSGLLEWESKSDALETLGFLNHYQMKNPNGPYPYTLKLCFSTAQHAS
UniProt P09471, whole entry, looked up: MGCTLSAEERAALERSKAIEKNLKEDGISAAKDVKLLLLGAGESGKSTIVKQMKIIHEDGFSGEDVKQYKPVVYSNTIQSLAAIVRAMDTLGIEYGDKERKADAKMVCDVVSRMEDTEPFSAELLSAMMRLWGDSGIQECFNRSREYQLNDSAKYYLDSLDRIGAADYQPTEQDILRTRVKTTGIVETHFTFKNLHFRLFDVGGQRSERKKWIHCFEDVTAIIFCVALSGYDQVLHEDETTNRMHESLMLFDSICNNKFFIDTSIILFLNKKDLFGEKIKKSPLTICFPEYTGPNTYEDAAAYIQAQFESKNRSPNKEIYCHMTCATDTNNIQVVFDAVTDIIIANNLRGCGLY
UniProt P14324: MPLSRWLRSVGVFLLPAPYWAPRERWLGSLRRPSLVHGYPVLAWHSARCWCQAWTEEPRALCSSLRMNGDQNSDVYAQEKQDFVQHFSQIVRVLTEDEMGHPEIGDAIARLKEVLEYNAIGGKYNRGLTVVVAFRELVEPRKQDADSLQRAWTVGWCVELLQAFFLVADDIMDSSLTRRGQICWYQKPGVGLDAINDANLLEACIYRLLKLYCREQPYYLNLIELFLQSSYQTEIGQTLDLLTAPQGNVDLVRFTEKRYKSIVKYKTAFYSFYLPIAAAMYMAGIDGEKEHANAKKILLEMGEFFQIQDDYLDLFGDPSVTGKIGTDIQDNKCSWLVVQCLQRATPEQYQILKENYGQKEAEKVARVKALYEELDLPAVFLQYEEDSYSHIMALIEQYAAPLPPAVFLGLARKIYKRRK
UniProt P13693: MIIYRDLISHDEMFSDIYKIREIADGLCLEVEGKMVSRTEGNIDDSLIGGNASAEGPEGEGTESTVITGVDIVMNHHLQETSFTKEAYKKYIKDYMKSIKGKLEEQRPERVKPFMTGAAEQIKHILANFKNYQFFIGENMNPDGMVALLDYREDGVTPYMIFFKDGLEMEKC
UniProt P12955: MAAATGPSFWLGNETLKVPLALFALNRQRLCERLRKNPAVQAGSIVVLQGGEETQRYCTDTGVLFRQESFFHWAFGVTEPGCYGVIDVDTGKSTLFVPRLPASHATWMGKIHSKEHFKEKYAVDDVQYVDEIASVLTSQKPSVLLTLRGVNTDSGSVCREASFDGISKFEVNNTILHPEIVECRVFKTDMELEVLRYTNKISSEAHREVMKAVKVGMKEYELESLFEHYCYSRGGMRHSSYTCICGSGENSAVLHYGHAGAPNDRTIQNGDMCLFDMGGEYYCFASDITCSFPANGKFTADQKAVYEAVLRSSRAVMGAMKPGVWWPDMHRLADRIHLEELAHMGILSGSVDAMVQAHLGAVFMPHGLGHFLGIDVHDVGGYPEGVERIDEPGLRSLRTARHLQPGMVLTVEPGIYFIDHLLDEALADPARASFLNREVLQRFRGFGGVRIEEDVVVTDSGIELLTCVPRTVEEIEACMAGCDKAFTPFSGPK
UniProt P17544: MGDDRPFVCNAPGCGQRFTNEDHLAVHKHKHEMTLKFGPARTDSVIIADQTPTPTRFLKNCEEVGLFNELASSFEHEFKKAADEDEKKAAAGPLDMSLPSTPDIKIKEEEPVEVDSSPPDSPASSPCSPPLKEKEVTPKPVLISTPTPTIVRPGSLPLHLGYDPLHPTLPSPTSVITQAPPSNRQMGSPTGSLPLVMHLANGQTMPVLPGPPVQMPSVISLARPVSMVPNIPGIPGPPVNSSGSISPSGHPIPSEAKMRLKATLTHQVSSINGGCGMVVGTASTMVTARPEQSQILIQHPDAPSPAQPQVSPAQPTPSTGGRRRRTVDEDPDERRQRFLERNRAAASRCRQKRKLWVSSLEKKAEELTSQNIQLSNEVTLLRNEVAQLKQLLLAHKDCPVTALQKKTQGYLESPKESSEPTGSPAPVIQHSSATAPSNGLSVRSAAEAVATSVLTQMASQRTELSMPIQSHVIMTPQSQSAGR
UniProt P18858, whole entry: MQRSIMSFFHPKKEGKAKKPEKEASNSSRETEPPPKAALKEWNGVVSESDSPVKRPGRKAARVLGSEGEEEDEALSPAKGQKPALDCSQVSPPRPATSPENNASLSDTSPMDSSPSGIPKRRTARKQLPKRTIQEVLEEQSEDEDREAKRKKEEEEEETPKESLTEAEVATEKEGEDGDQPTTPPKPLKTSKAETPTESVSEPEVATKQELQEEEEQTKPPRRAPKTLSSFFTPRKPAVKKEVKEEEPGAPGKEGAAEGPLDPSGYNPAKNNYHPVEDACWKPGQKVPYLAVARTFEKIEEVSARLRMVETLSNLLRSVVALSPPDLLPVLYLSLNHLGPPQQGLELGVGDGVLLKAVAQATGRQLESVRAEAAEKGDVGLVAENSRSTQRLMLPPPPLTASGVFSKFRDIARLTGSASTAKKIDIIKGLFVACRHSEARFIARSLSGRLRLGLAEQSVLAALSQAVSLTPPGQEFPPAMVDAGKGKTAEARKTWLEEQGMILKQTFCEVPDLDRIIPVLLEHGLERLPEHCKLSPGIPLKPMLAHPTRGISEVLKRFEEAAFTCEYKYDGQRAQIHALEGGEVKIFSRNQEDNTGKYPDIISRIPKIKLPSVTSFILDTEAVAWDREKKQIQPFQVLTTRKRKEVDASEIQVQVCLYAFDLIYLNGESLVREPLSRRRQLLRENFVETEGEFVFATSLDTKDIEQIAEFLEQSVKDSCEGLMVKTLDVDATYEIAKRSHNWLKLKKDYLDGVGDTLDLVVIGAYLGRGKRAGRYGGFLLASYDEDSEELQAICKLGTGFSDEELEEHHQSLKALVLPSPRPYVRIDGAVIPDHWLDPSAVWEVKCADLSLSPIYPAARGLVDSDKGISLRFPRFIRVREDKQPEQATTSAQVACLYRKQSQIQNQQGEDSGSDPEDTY

This is one part of the list. The data scatter; read single values as rough.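 Many melting curves are irregular; where none melted, Tm was taken as 64 °C.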

Compound in the first experiment: CCc1cnccc1C(=O)Nc1cc2c(cc1F)NC(=O)CC2
As to the kind of experiment: melting temperature shift (DMSO Tm minus MBE1-treated Tm) in cellular thermal proteome profiling; higher = less thermal stabilization by MBE1 (negative = stabilized by MBE1). The settings on record: A375; MBE1 concentration: 100 nM.
For RNH1 (UniProt P13489), the melting temperature shift is -0.101 °C.
As for HEXB (UniProt P07686), the melting temperature shift is -4.1 °C.
Consider UniProt P08582, for which the melting temperature shift is -1.47 °C.
Regarding HMBS (UniProt P08397), the melting temperature shift was -1.73 °C.
Consider ACAA1 (UniProt P09110), for which the melting temperature shift is -0.879 °C.
For the target SNRPB2 (UniProt P08579), the melting temperature shift is -0.704 °C.
As to NFKB1 (UniProt P19838), the melting temperature shift is -0.16 °C.
Take RALA (UniProt P11233): the melting temperature shift was -2.89 °C.
As for RRAS (UniProt P10301), the melting temperature shift was -1.96 °C.
As to GSPT1 (UniProt P15170), the melting temperature shift is -0.342 °C.
Regarding HNRNPL (UniProt P14866), the melting temperature shift is -0.109 °C.
Regarding NDUFV2 (UniProt P19404), the melting temperature shift was -0.543 °C.
As for P0DI82 (UniProt P0DI81), the melting temperature shift amounted to 1.16 °C.
Take HSP90B1 (UniProt P14625): the melting temperature shift was -0.965 °C.
On to UniProt P09486, for which the melting temperature shift is -0.421 °C.
Regarding UniProt P08779, the melting temperature shift was -10.4 °C.
Take UniProt P0DPB6: the melting temperature shift is -0.76 °C.
Regarding FH (UniProt P07954), the melting temperature shift was -0.114 °C.
For the target GNAO1 (UniProt P09471), the melting temperature shift was -0.116 °C.
Regarding FDPS (UniProt P14324), the melting temperature shift was found to be 0.891 °C.
Turning to UniProt P17252, the melting temperature shift is -0.0855 °C.
As for ARF4 (UniProt P18085), the melting temperature shift was -0.577 °C.
For TPT1 (UniProt P13693), the melting temperature shift was -0.651 °C.
As to UMPS (UniProt P11172), the melting temperature shift is -0.389 °C.
Consider LYN (UniProt P07948), for which the melting temperature shift is 0.598 °C.
Same read-out and setting: then DLAT (UniProt P10515), with -1.11 °C; and IGF2R (UniProt P11717), with -1.37 °C.
As for TROVE2 (UniProt P10155), the melting temperature shift was -1.35 °C.
For the target PEPD (UniProt P12955), the melting temperature shift is -1.28 °C.
With UniProt P17544, the melting temperature shift was determined as 0.00671 °C.
For the target APRT (UniProt P07741), the melting temperature shift was -1.04 °C.
Take LIG1 (UniProt P18858): the melting temperature shift was -0.325 °C.
On to ANXA2 (UniProt P07355), for which the melting temperature shift was -0.302 °C.
Still for that read-out and setting: as for UniProt P07199, the figure is -1.23 °C.
Take UniProt P15848: the melting temperature shift is -2.81 °C.
With UniProt P15531, the melting temperature shift was -2.8 °C.
PCNA (UniProt P12004): the melting temperature shift is -1.09 °C.

Staying with this experiment, now noted: A375; MBE1 concentration: 1 uM.
As to RNH1 (UniProt P13489), the melting temperature shift was -0.533 °C.
For HEXB (UniProt P07686), the melting temperature shift is -0.0295 °C.
On to UniProt P08582, for which the melting temperature shift was 1.19 °C.
Take HMBS (UniProt P08397): the melting temperature shift was -3.15 °C.
ACAA1 (UniProt P09110): the melting temperature shift was determined as 1.01 °C.
Same read-out and setting: as for SNRPB2 (UniProt P08579), the figure is -0.57 °C; as for NFKB1 (UniProt P19838), -0.0894 °C.
Regarding RALA (UniProt P11233), the melting temperature shift is -2.37 °C.
RRAS (UniProt P10301): the melting temperature shift stood at 0.299 °C.
For GSPT1 (UniProt P15170), the melting temperature shift is -0.0134 °C.
Same read-out and setting: then HNRNPL (UniProt P14866), with -0.0513 °C.
With NDUFV2 (UniProt P19404), the melting temperature shift was -0.416 °C.
Regarding P0DI82 (UniProt P0DI81), the melting temperature shift stood at 0.14 °C.
In the case of HSP90B1 (UniProt P14625), the melting temperature shift was -0.183 °C.
Turning to UniProt P09486, the melting temperature shift is -1.03 °C.
The same measure, in the same setting: as for UniProt P08779, the figure is 1.96 °C; as for UniProt P0DPB6, 2.67 °C.
Turning to FH (UniProt P07954), the melting temperature shift is 0.0805 °C.
Take GNAO1 (UniProt P09471): the melting temperature shift was 0.299 °C.
Still for that read-out and setting: then FDPS (UniProt P14324), with 1.11 °C; and UniProt P17252, with -0.00611 °C; and ARF4 (UniProt P18085), with -0.0939 °C.
TPT1 (UniProt P13693): the melting temperature shift was -0.905 °C.
Consider UMPS (UniProt P11172), for which the melting temperature shift was found to be 0.107 °C.
As to LYN (UniProt P07948), the melting temperature shift turned out to be 1.09 °C.
Turning to DLAT (UniProt P10515), the melting temperature shift was 0.863 °C.
Regarding IGF2R (UniProt P11717), the melting temperature shift was 0.318 °C.
As for TROVE2 (UniProt P10155), the melting temperature shift was -0.162 °C.
Regarding PEPD (UniProt P12955), the melting temperature shift was -0.44 °C.
For the target UniProt P17544, the melting temperature shift turned out to be 0.898 °C.
Same read-out and setting: then APRT (UniProt P07741), with -0.666 °C.
For the target LIG1 (UniProt P18858), the melting temperature shift is -0.583 °C.
With ANXA2 (UniProt P07355), the melting temperature shift was -0.0402 °C.
Regarding UniProt P07199, the melting temperature shift was -0.974 °C.
Turning to UniProt P15848, the melting temperature shift was -2.08 °C.
UniProt P15531: the melting temperature shift was -0.325 °C.
Turning to PCNA (UniProt P12004), the melting temperature shift is -0.235 °C.
